Test results reported in PMC9813404.
No constants are given. Whether binding was seen depends on the method and setting. Binding seen in cells or lysates may run through a third protein. Some binding calls cover weakened binding; strength is not graded here.

Sequences of proteins named here, by UniProt entry; tags and fusion partners are left off. A change or cut given only in a name is not applied to a line headed by its entry.
UniProt Q99MQ3: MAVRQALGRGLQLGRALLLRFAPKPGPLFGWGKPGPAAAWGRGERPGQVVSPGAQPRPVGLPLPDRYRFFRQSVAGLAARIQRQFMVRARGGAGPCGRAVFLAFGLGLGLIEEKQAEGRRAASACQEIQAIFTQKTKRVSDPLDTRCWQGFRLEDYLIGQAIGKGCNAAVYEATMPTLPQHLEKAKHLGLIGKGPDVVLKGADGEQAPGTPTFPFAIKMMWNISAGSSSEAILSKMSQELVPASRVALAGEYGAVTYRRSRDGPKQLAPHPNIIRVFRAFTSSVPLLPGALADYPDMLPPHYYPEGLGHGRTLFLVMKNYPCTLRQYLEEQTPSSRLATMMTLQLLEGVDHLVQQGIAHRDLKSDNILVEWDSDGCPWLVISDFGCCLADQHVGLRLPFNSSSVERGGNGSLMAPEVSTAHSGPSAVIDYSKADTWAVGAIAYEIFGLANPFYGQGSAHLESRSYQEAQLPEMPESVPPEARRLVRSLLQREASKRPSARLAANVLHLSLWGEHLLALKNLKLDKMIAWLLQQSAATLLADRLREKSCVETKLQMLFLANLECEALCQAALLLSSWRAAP

T1: Phosphoglycerate mutase family member 5 (PGAM5) (mouse (endogenous in hippocampal tissue)) (UniProt Q8BX10)
T1 sequence: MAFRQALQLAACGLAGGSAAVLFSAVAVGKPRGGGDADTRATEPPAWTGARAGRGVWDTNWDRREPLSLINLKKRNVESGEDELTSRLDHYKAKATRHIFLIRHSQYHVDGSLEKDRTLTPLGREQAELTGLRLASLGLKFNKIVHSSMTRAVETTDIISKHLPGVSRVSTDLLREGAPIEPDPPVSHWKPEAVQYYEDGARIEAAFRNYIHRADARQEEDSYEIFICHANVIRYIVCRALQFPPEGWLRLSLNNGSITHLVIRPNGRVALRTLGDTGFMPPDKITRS


Columns and labels:
[1] = biological target: T1, Phosphoglycerate mutase family member 5 (PGAM5) (mouse (endogenous in hippocampal tissue)); experiment: co-IP; protein extracts from hippocampal tissue of KA-model mice in IP lysis buffer; incubated with anti-PGAM5 (Santa, sc515880), anti-PINK1 (Proteintech, 23274-1-AP) or rabbit IgG overnight at 4°C, then protein A/G agarose beads 2 h at 4°C; washed three times; Western blot
[2] = biological target: PTEN-induced putative kinase 1 (PINK1) (mouse (endogenous in hippocampal tissue)) (UniProt Q99MQ3); experiment: as above

Row | Molecule | binding [1] | binding [2]
1 | PTEN-induced putative kinase 1 (PINK1) (from UniProt Q99MQ3 78-580) | binds | 
2 | Phosphoglycerate mutase family member 5 (PGAM5) (protein, UniProt Q8BX10 1-288) MAFRQALQLAACGLAGGSAAVLFSAVAVGKPRGGGDADTRATEPPAWTGARAGRGVWDTNWDRREPLSLINLKKRNVESGEDELTSRLDHYKAKATRHIFLIRHSQYHVDGSLEKDRTLTPLGREQAELTGLRLASLGLKFNKIVHSSMTRAVETTDIISKHLPGVSRVSTDLLREGAPIEPDPPVSHWKPEAVQYYEDGARIEAAFRNYIHRADARQEEDSYEIFICHANVIRYIVCRALQFPPEGWLRLSLNNGSITHLVIRPNGRVALRTLGDTGFMPPDKITRS |  | binds
